According to PMC10787177:
Results are given in words; binding and its absence hold for the method and conditions named. Binding seen in cells or lysates may run through a third protein. Binding calls can cover weak binding; strength is not graded here. Tags and fused reporters may be left off the sequences shown.

T1: PHB1-GFP (human) (UniProt P35232)
T1 sequence: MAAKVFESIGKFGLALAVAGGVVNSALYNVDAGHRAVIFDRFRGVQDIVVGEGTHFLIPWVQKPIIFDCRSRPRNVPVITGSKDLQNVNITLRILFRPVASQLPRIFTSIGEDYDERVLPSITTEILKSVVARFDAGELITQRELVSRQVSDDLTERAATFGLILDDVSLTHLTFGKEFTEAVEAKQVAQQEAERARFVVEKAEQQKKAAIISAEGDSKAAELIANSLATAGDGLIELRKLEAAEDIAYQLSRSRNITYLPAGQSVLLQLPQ


Experiments:
PHB1-GFP (human) = target: T1, PHB1-GFP (human); experiment: co-IP; GFP-trap Sepharose beads; HEK293 lysates co-expressing the GFP-tagged refProt or GFP with the Flag-tagged altProt; immunoblot
IP_762813-Flag (human) = experiment: co-IP; Anti-FLAG M2 magnetic beads; HEK293 lysates co-expressing the GFP-tagged refProt and the Flag-tagged altProt or empty vector; 150 mM NaCl, 50 mM Tris pH 7.5, 1% Triton; overnight at 4 °C; for PHB1-GFP and RPL18-GFP stringent wash with 250 mM NaCl and FLAG peptide, elution with FLAG peptide; immunoblot

binding (PHB1-GFP (human)) | binding (IP_762813-Flag (human)) | Molecule
binds | – | IP_762813-Flag (human)
– | binds | PHB1-GFP (protein, UniProt P35232-1 1-272) MAAKVFESIGKFGLALAVAGGVVNSALYNVDAGHRAVIFDRFRGVQDIVVGEGTHFLIPWVQKPIIFDCRSRPRNVPVITGSKDLQNVNITLRILFRPVASQLPRIFTSIGEDYDERVLPSITTEILKSVVARFDAGELITQRELVSRQVSDDLTERAATFGLILDDVSLTHLTFGKEFTEAVEAKQVAQQEAERARFVVEKAEQQKKAAIISAEGDSKAAELIANSLATAGDGLIELRKLEAAEDIAYQLSRSRNITYLPAGQSVLLQLPQ
